Tests used:
Type in all cases: in vivo, human
[1] = Metabolomics demographic study of plasma from 270 healthy volunteers of various ages (Table 11)
[2] = Disease progression: plasma of 40 ALS subjects, random coefficient regression analysis over time (Table 16); conditions: common slope of plasma metabolite level over month (0, 1, 6, 12), positive = level increased over time, negative = decreased
[3] = Disease progression: plasma of ALS subjects, matched-pairs T-test month 1 vs month 12 (Table 18); conditions: mean plasma level, month 1 vs month 12 after screening; positive = increase as disease progressed; 37 ALS patients
[4] = Metabolomic profiling (GC-MS/LC-MS) of CSF samples, ALS subjects vs control subjects (Example 1; Tables 3, 4); conditions: CSF
[5] = Metabolomic profiling of blood plasma, 62 ALS subjects vs 62 control subjects (Example 3; Tables 7, 8); conditions: blood plasma
[6] = ALS mean as compared to control mean, T-tests of ALS vs. Controls
[7] = mean in ALS samples vs control samples, T-tests
[8] = ALS mean level compared to control mean level, positive = increase in ALS
[9] = ALS mean level vs control mean level, 62 ALS vs 62 control subjects, analytical platform LC-MS
[10] = ALS mean level vs control mean level, 62 ALS vs 62 control subjects, analytical platform GC-MS

Cn1c(=O)c2c(ncn2C)n(C)c1=O [Caffeine]
change of plasma level with age [1]: increase with age
SLOPE [2]: −0.030
% Change with disease progression [3]: −36%
% change in ALS [4, 6]: −24%
% change in ALS ([4]; ALS mean as compared to the control mean): −24%
Increase (+) or Decrease (−) in ALS ([4]; mean in ALS samples as compared to control samples): −
Increase (+) or Decrease (−) in ALS [4, 7]: −

C[N+](C)(C)CC(O)CC(=O)[O-] (centres unmarked) [Carnitine]
% change in ALS [5, 8]: 9%
% change in ALS [5, 9]: 9%
SLOPE [2]: −0.007
% Change with disease progression [3]: 1%
% change in ALS [4, 6]: 55%
Increase (+) or Decrease (−) in ALS [4, 7]: +

Cn1c(=O)[nH]c2ncn(C)c2c1=O [Paraxanthine, 1-7-dimethylxanthine]
change of plasma level with age [1]: increase with age
SLOPE [2]: −0.025
% Change with disease progression [3]: −27%

O=C(O)CC(O)(CC(=O)O)C(=O)O [citric acid]
% change in ALS [5, 8]: −9%
% change in ALS [5, 10]: −9%
SLOPE [2]: −0.005
% Change with disease progression [3]: −3%

CCCCCCCCCC(=O)O [decanoic acid]
% change in ALS [5, 8]: 10%
% change in ALS [5, 10]: 10%
SLOPE [2]: −0.001
% Change with disease progression [3]: 3%

N[C@@H](CCC(=O)O)C(=O)O [glutamic acid]
% change in ALS [5, 8]: 47%
% change in ALS [5, 10]: 47%
SLOPE [2]: 0.006
% Change with disease progression [3]: 5%

O=C(O)C(O)CO (centres unmarked) [glyceric acid]
% change in ALS [5, 8]: −2%
% change in ALS [5, 10]: −2%
SLOPE [2]: −0.014
% Change with disease progression [3]: −16%

O=C(O)CNC(=O)c1ccccc1 [hippuric acid]
% change in ALS [5, 8]: 6%
% change in ALS [5, 9]: 6%
SLOPE [2]: −0.040
% Change with disease progression [3]: −37%

O=C(O)CO [hydroxyacetic acid]
% change in ALS [5, 8]: −2%
% change in ALS [5, 10]: −2%
SLOPE [2]: −0.004
% Change with disease progression [3]: −5%

O=C(O)CC(O)C(=O)O (centres unmarked) [malic acid]
% change in ALS [5, 8]: −8%
% change in ALS [5, 9]: −8%
SLOPE [2]: 0.019
% Change with disease progression [3]: 13%

COC(=O)Cc1c[nH]c2ccccc12 [methyl-indole-3-acetate]
% change in ALS [5, 8]: 14%
% change in ALS [5, 9]: 14%
SLOPE [2]: −0.009
% Change with disease progression [3]: −6%

CCCCCCCCCCCCCCCC(=O)O [n-hexadecanoic acid]
% change in ALS [5, 8]: 5%
% change in ALS [5, 10]: 5%
SLOPE [2]: 0.004
% Change with disease progression [3]: 9%

CCCCCCCCCCCCCCCCCC(=O)O [octadecanoic acid]
% change in ALS [5, 8]: 11%
% change in ALS [5, 10]: 11%
SLOPE [2]: −0.002
% Change with disease progression [3]: −1%

CCCCCC/C=C\CCCCCCCC(=O)O [palmitoleic acid]
% change in ALS [5, 8]: −17%
% change in ALS [5, 10]: −17%
SLOPE [2]: 0.015
% Change with disease progression [3]: 29%

O=P(O)(O)OC[C@H](O)CO [sn-Glycerol-3-phosphate]
% change in ALS [5, 8]: 1%
SLOPE [2]: 0.001
% Change with disease progression [3]: −2%

CCCCCCCCCCCCCC(=O)O [tetradecanoic acid]
% change in ALS [5, 8]: −11%
% change in ALS [5, 10]: −11%
SLOPE [2]: 0.003
% Change with disease progression [3]: 5%

O=c1[nH]c(=O)c2[nH]c(=O)[nH]c2[nH]1 [uric acid]
% change in ALS [5, 8]: −5%
% change in ALS [5, 10]: −5%
SLOPE [2]: 0.000
% Change with disease progression [3]: −2%

— patent US8841077B2, “Biomarkers for amyotrophic lateral sclerosis and methods using the same” (Massachusetts General Hospital, priority 2006, dated 2014)
